# Laboratory results from article PMC12040169 (PLOS Biology, 2025).
# Some of the results follow.
# Test system: T1, CTL2-GFP (C. trachomatis L2/434/Bu, GFP-expressing)
# T1 construct: L2/434/Bu, GFP-expressing
# Design: species or system HeLa; Intracellular C. trachomatis growth in HeLa cells, bulk GFP fluorescence relative to DMSO
# Settings: bulk GFP, single well; 28.5 h, 10 µM; inhibitor
row,Structure (SMILES),% of control remaining [%]
1,COc1cccc(Oc2nccnc2-c2ccsc2)c1 [CBK106762],97.842
2,COCc1cccc(-c2ncc(OC)nc2NC(=O)c2c(C)noc2C)c1 [CBK145237],92.3675
3,O=C(c1cccc(C(F)(F)F)c1)N1CCN(C(=O)c2ccc3c(c2)CCC3)CC1 [CBK298300],160.084
4,CCC(C(=O)Nc1nccs1)N(C)Cc1c(C)nn(C(C)C)c1C (stereo not drawn) [CBK307402],106.526
5,COc1ccc(-c2cc(C(=O)Nc3nc4ccc(S(C)(=O)=O)cc4s3)c3ccccc3n2)cc1 [CBK033551],110.835
6,O=C(O)c1cnc(NCC2CCCCCC2)[nH]c1=O [CBK023792],90.8644
7,CCN(CCO)c1ccc(Nc2nc(Br)cn3ccnc23)cc1 [CBK037475],150.641
8,O=C(c1cnc2ccccc2n1)N1CCC(F)CC1 [CBK200264],180.355
9,CC(=O)NCC(=O)N1CCC2(CC1)CC(=O)c1cc(Br)ccc1O2 [CBK156447],89.4302
10,COc1ccc(-c2nc(NC(=O)C3CCC(OC)CC3)cnc2-c2ccc(F)cc2)cc1 (stereo not drawn) [CBK037004],124.19
11,COCCn1c(CO)nnc1[C@H]1C[C@H](NC(=O)c2ccc(F)cc2F)C1 [CBK306665],155.647
12,O=C(CSc1nc[nH]n1)Nc1ccc(-c2nc3ccccc3s2)cc1 [CBK267146],167.304
13,CCC(=O)N1CCCC1c1nc(C)c2c(n1)N(Cc1ccc(F)cc1)CCC2 (stereo not drawn) [CBK286247],127.171
14,Cc1nccn1CCNC(=O)c1c2c(nn1C)CCCC2 [CBK281857],120.565
15,N/C(=N\OCC(=O)Nc1ccc(-n2cnnn2)cc1)c1nonc1N [CBK265331],114.588
16,O=C(c1cccnc1)C1CCN(C(=O)c2ccccc2F)CC1 [CBK283853],105.81
17,CCC(=O)N1CCCC1c1nc(C)c2c(n1)N(Cc1ccccc1OC)CCC2 (stereo not drawn) [CBK285642],105.572
18,COC(=O)C(=O)N1CC[C@H]2NC(=O)N(Cc3ccccc3)C(=O)[C@H]21 [CBK289292],125.272
19,CCCCn1nc2[nH]c(=O)cc(C(F)F)c2c1C [CBK288011],88.2809
20,O=C(CN1CCCC2(CCN(C(=O)c3ccoc3)C2)C1)Nc1ccc(F)c(Cl)c1 (stereo not drawn) [CBK132822],96.4771
21,COc1ccc(CN2CCC(N3CCc4ccccc4C3)CC2)cc1OCc1ccccc1 [CBK264629G],122.755
22,O=C(O)c1cccc(C(=O)c2cccc(C(=O)O)c2)c1 [CBK263933],121.806
23,COc1ccc(C2C=C(C)Nc3nc(N)nn32)cc1 (stereo not drawn) [CBK287906],133.387
24,O=C(CC(NCCO)C(=O)O)Nc1cccc(C(F)(F)F)c1 (stereo not drawn) [CBK267065],94.7612
25,Cc1ccnc(SCC(=O)Nc2sc3c(c2C(=O)Nc2ccccc2)CCCC3)n1 [CBK266348],111.19
26,CC(C)CC1OC(NC2CCCCCC2)=NC1=O (stereo not drawn) [CBK074901],118.342

# 15 structures already listed, arranged by formula weight, low to high.
row,Structure (SMILES),% of control remaining [%]
19,CCCCn1nc2[nH]c(=O)cc(C(F)F)c2c1C [CBK288011],88.2809
23,COc1ccc(C2C=C(C)Nc3nc(N)nn32)cc1 (stereo not drawn) [CBK287906],133.387
8,O=C(c1cnc2ccccc2n1)N1CCC(F)CC1 [CBK200264],180.355
22,O=C(O)c1cccc(C(=O)c2cccc(C(=O)O)c2)c1 [CBK263933],121.806
1,COc1cccc(Oc2nccnc2-c2ccsc2)c1 [CBK106762],97.842
14,Cc1nccn1CCNC(=O)c1c2c(nn1C)CCCC2 [CBK281857],120.565
16,O=C(c1cccnc1)C1CCN(C(=O)c2ccccc2F)CC1 [CBK283853],105.81
24,O=C(CC(NCCO)C(=O)O)Nc1cccc(C(F)(F)F)c1 (stereo not drawn) [CBK267065],94.7612
18,COC(=O)C(=O)N1CC[C@H]2NC(=O)N(Cc3ccccc3)C(=O)[C@H]21 [CBK289292],125.272
15,N/C(=N\OCC(=O)Nc1ccc(-n2cnnn2)cc1)c1nonc1N [CBK265331],114.588
4,CCC(C(=O)Nc1nccs1)N(C)Cc1c(C)nn(C(C)C)c1C (stereo not drawn) [CBK307402],106.526
11,COCCn1c(CO)nnc1[C@H]1C[C@H](NC(=O)c2ccc(F)cc2F)C1 [CBK306665],155.647
7,CCN(CCO)c1ccc(Nc2nc(Br)cn3ccnc23)cc1 [CBK037475],150.641
3,O=C(c1cccc(C(F)(F)F)c1)N1CCN(C(=O)c2ccc3c(c2)CCC3)CC1 [CBK298300],160.084
20,O=C(CN1CCCC2(CCN(C(=O)c3ccoc3)C2)C1)Nc1ccc(F)c(Cl)c1 (stereo not drawn) [CBK132822],96.4771

# (more compounds)

row,Structure (SMILES),% of control remaining [%]
1,Cc1ccc(NC(=O)Cn2cnc3c2c(=O)n(C)c(=O)n3C)c(C)c1 [CBK133276],144.922
2,CC1(C)CC(NC(=O)COc2ccc([N+](=O)[O-])cc2)CC(C)(C)N1 [CBK266806],136.275
3,Cc1nc([N+](=O)[O-])cn1CCC(=O)Nc1ccccc1Oc1ccccc1Cl [CBK298319],135.139
4,COc1ccc(C(=O)N2CCc3ccccc32)c(OC)n1 [CBK200281],100.002
5,Cc1c(Cl)c([N+](=O)[O-])nn1CC(=O)N1CCN(Cc2ccccc2)CC1 [CBK261720],112.365
6,CCCN1CCc2c(sc3nc(SCC(=O)c4ccccc4)n(-c4ccccc4)c(=O)c23)C1 [CBK262587],114.281
7,CCOC(=O)C1CCN(CCOc2ccc3ccccc3c2)CC1 [CBK270128C],112.073
8,Cc1ccc(CN2CC[C@H]3NC(=O)c4ccccc4OCC/C=C/C[C@H]3C2)cn1 [CBK292056],135.02
9,CCCC(=O)N1CCC(c2nc(Cc3cccs3)no2)C1 (stereo not drawn) [CBK283034],118.849
10,CN1CCN(C(=O)CCC2CCCO2)C(c2ccccc2)C1 (stereo not drawn) [CBK282015],130.299
11,FC(F)(F)c1cccc(OCCN2CCOCC2)c1 [CBK269669C],130.466
12,Cc1c(-c2ccnc(N)n2)nnn1-c1ccc(Cl)cc1Cl [CBK018733],90.3269
13,CN(C)C(=O)c1ccc(-c2ccc3c(c2)COC(C2CCN(C(=O)CC(C)(C)c4ccccc4)CC2)O3)cc1 (stereo not drawn) [CBK149765],94.9424
14,Cc1ccc(OC(C)C(=O)N(C)c2ccccc2)cc1 (stereo not drawn) [CBK268645],79.7105
15,Cc1cc(O)c(C(=O)Nc2cccc(Cl)c2)c(=O)n1Cc1ccco1 [CBK291143],111.843
16,COc1ccc(C(=O)N2CCN(Cc3cc(OC)ccc3OC)CC2)cc1 [CBK263032],118.86
17,COc1ccc(C(=O)C(OC(=O)c2cc(O)nc3ccccc23)c2ccccc2)cc1 (stereo not drawn) [CBK264083],104.07
18,CCN1CCN(Cc2c(C(F)(F)F)[nH]c3ncccc23)CC1 [CBK285362],114.24
19,COc1ccc(S(=O)(=O)N(C)c2ccc(N3CCNCC3)c3ccccc23)cc1 [CBK022404C],88.3548
20,O=S(=O)(c1ccc(-c2ccccc2)cc1)N1CCCN(CCCOC2CCCCO2)CC1 (stereo not drawn) [CBK063137],75.1328
21,COC(=O)CCc1ccc(S(=O)(=O)N2CCCN(Cc3c(-c4ccccc4)noc3C)CC2)cc1 [CBK063011],94.3791
22,CC1(C)CC(O[Si](C)(C)OC2CC(C)(C)NC(C)(C)C2)CC(C)(C)N1 [CBK261942],102.013
23,CC(C)c1cc(C(C)C)c(S(=O)(=O)n2cnc3c2c(=O)[nH]c(=O)n3C)c(C(C)C)c1 [CBK018772],106.78
24,CC(Oc1cccc(F)c1)C(=O)N(Cc1cccnc1)CC1CCCO1 (stereo not drawn) [CBK305313],112.562
25,NC(=O)c1ccc(NC(=O)N2CCc3ccccc3C2)cc1 [CBK155299],108.321
26,Cn1c(=O)c2c(ncn2Cc2noc(-c3ccoc3)n2)n(C)c1=O [CBK304945],107.276

row,Structure (SMILES),% of control remaining [%]
1,NS(=O)(=O)c1ccc(NC(=O)/C(=C/c2ccc(Br)cc2)NC(=O)c2ccccc2)cc1 [CBK262109],60.7361
2,CN(C(=O)C1CCN(C(=O)c2ccoc2)CC1)C(c1ccc(F)cc1)c1ccccn1 (stereo not drawn) [CBK060206],118.05
3,O=C(CSc1ccc2ccccc2c1)NCc1ccco1 [CBK269699],129.131
4,Cc1ccc(Cn2ncc3c(N4CCCC4)ncnc32)cc1 [CBK287601],130.984
5,Cc1nc(C)n(CC2CCCCN2Cc2cn3ccccc3n2)n1 (stereo not drawn) [CBK304008],97.8817
6,CCN1CCN(S(=O)(=O)c2cccc3c(S(=O)(=O)N4CCN(CC)CC4)cccc23)CC1 [CBK269611],99.0564
7,CCC(=O)N1CCC2(CC1)CNC(=O)c1cc(C)ccc1O2 [CBK282468],126.438
8,O=S(=O)(NCc1ccccc1)c1ccc(Cl)c(S(=O)(=O)NCc2ccccc2)c1 [CBK263251],112.5
9,O=C(Cn1cccc(C(=O)NCc2ccccc2)c1=O)NC1(c2ccccc2)CCCC1 [CBK286058],120.466
10,COc1cc(Cc2c(OCCN(C)C)nc3ccccn3c2=O)cc(OC)c1OC [CBK005004C],124.556
11,Cc1cc(-c2nccnc2NCCCN2CCOCC2)cc(C)c1O [CBK036598],196.569
12,Cc1cccc(=O)n1CCCn1cnc2nccnc2c1=O [CBK307186],87.988
13,O=C(O)c1cc(NC(=O)C(c2ccccc2)c2ccccc2)cc(C(=O)O)c1 [CBK261191],96.6997
14,O=c1[nH]c2ccccc2n1CCCN1CCC2(CC1)CN(CCO)c1ccccc12 [CBK137133],116.077
15,CN(Cc1ccccc1)C1(O)C(=O)Nc2ccc(Cl)cc21 (stereo not drawn) [CBK269703],116.712
16,O=[N+]([O-])c1ccc(NC(c2ccccc2)C2CC2)nc1 (stereo not drawn) [CBK295317],116.944
17,Cc1nc(N2CCN(C)CC2)ncc1C(=O)NCCSc1cnn[nH]1 [CBK306623],121.713
18,Cc1ccc(S(=O)(=O)N(CC(=O)NC2CCCC2)Cc2ccccc2)cc1 [CBK263166],123.643
19,Cc1ccc(C(=O)O)cc1S(=O)(=O)Nc1ccc(-c2cn3ccsc3n2)cc1 [CBK296688],100
20,Cc1cccc2[nH]c(-c3ccccc3)nc12 [CBK000110],119.664
21,O=C(/C=C\c1cn(-c2ccccc2)nc1-c1cccc([N+](=O)[O-])c1)n1nnc2ccccc21 [CBK265273],138.336
22,Fc1ccccc1-c1nccnc1NCc1ccncc1 [CBK037540],169.781
23,COc1ccc(F)c(CNCC2CCN(C(=O)OC(C)(C)C)CC2)c1 [CBK056716],145.274
24,Cc1noc(NS(=O)(=O)c2ccc(NC(=O)/C=C/c3ccc(Cl)cc3Cl)cc2)c1C [CBK263115],100
25,Cn1c(=O)n(CC(=O)NCCc2ccccc2)c2cccnc21 [CBK283910],145.081
26,O=C(Cc1cccc2ccccc12)Nc1nnc(C2=COCCO2)o1 [CBK287414],148.296
